This assay can be described thus: qHTS Assay for Modulators of Lamin A Splicing. Particulars: HeLa LMNA splicing GFP/RFP minigene ratio, 48 h. In a few lines:
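Read-out is the ratio of GFP to DsRed2 object intensity, acquired by 488 nm laser-scanning cytometry on HeLa lamin A-EGFP minigene reporter cells. Compound incubation 48 hrs at 37 °C in Opti-MEM with 2% FBS; DMSO 0.5% final.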

Setting [1] is: measured here: GFP splicing reporter channel.
Where [2] appears, read: measured here: RFP viability control channel.

The AC50 is the midpoint of the concentration-response curve, whichever way the signal moves.

Each structure is given as a SMILES string. Values joined by “and” are separate entries in the source; they are usually repeats but may differ in a detail not shown here. Equal entries are not always repeated. This is one part of the list. Shown are side measurements of this screen, not its main read-out; they come without a call. Most of these compounds were active or inconclusive in the main read-out, so they are no random draw. Potencies come from curve fits of mixed quality, noted in brackets.

As for `COCC(C)NC(=O)c1oc2c(c1C)C1(CCC2)SCCS1` (centres undefined), the concentration at half-maximal activity (AC50) was 20 µM [rising, single point] under setting [1] and 17.8 µM [rising, partial curve, poor fit] under setting [2]. In the case of `O=C(CCc1nnc(-c2ccc3c(c2)OCO3)o1)N1CCC(c2ccc(F)cc2)C1` (centres undefined), the concentration at half-maximal activity (AC50) under setting [1] is 17.8 µM [rising, partial curve, poor fit]. On the same count and under the same terms, next, `O=C(NCc1ccc(F)cc1)c1cc(Sc2ccc(F)cc2F)nc2ccccc12`: 0.0501 µM [falling, full curve, poor fit]; `Cc1nn(C(=O)c2ccccc2)c(C)c1S(=O)(=O)N1CCOCC1`: 0.00891 µM [falling, full curve, poor fit]. `CCOC(=O)c1cc(S(=O)(=O)NC2CCN(C(=O)OCC)CC2)cn1C`: the AC50 under setting [2] is 20 µM [rising, single point]. Still for that read-out and setting: next, `O=S(=O)(NCc1ccccc1Cl)c1ccc(-c2cnc(C3CC3)o2)cc1`: 3.98 µM [rising, single point]. With `CCOc1ccc(S(=O)(=O)N2CCN(C(=S)NCc3ccco3)CC2)cc1`, the AC50 under setting [1] is 15.8 µM [rising, single point] and the AC50 under setting [2] is 12.6 µM [rising, partial curve].

Take `Cc1nc2ccc(NC(=O)c3cccs3)cc2c(=O)n1Cc1ccc(Cl)cc1`: the half-maximal activity concentration (AC50) under setting [2] was 0.447 µM [rising, full curve].

`CNC(=S)N(C)c1ccccc1`: the AC50 under setting [1] is 0.0355 µM [falling, full curve, poor fit] and the concentration at half-maximal activity (AC50) under setting [2] was 0.0501 µM [falling, full curve]. With `O=C(Nc1ccc(-c2nc3ccccc3[nH]2)cc1)c1ccc(N2C(=O)CCC2=O)cc1`, under setting [1], the half-maximal activity concentration (AC50) was 5.62 µM [rising, single point]. For the compound `O=C(Nc1ccccc1)c1cccc(S(=O)(=O)Oc2ccc([N+](=O)[O-])cc2)c1`, the half-maximal activity concentration (AC50) reads like this: under setting [1], 11.2 µM [rising, partial curve]; under setting [2], 14.1 µM [rising, partial curve]. For the compound `Cc1nc(NCCN2CCOCC2)c2nnn(Cc3c(F)cccc3Cl)c2n1`, the concentration at half-maximal activity (AC50) reads like this: under setting [1], 14.1 µM [rising, partial curve, poor fit]; under setting [2], 12.6 µM [rising, single point].

On to `CC(=O)Nc1ccc(NC(=O)c2cccc(-c3cc4ccccc4oc3=O)c2)cc1`, for which the half-maximal activity concentration (AC50) under setting [1] is 0.631 µM [falling, full curve].

Take `CCCCNC(=O)NNC(=O)c1ccc(F)cc1`: under setting [1], the AC50 is 4.47 µM [falling, single point].

Take `CCC(=O)N1c2ccccc2CC1C(=O)NCCc1ccccc1Cl` (centres undefined): the AC50 under setting [1] is 0.00355 µM [rising, full curve, poor fit]. With `CSCCC(NC(=O)c1ccco1)C(=O)OCC(=O)Nc1sccc1C#N` (centres undefined), the AC50 under setting [2] is 7.08 µM [falling, single point]. Regarding `COCCn1c(=O)[nH]c(=O)c2c1nc(-c1ccc(-c3ccc(Cl)cc3[N+](=O)[O-])o1)n2Cc1ccccc1`, the AC50 under setting [1] is 35.5 µM [falling, single point]. On to `COc1ccccc1N1CCN(CCNC(=O)Nc2cccc(C)c2C)CC1`, for which the concentration at half-maximal activity (AC50) under setting [2] was 14.1 µM [rising, single point]. As for `CCN(CC)S(=O)(=O)c1ccc(C)c(NC(=O)CSc2nc3ccc(C)cc3[nH]2)c1`, the AC50 reads like this: under setting [1], 31.6 µM [rising, single point]; under setting [2], 35.5 µM [rising, single point].

Regarding `CC(C)(C)NC[C@H](O)COc1cccc2c1CCCC2=O`, the AC50 under setting [1] is 2.82 µM [falling, single point]. Consider `Cc1cc(C(=O)COc2cccnc2[N+](=O)[O-])c(C)n1-c1ccccc1`, for which the concentration at half-maximal activity (AC50) by setting is: under setting [1], 35.5 µM [rising, single point]; under setting [2], 35.5 µM [rising, single point].

Take `Fc1ccc(Sc2nc(-c3ccccc3)nnc2C(F)(F)F)cc1`: the concentration at half-maximal activity (AC50) was 35.5 µM [falling, single point] under setting [1] and 35.5 µM [falling, single point] under setting [2].

On to `Cc1ccc(Nc2nc3ccccc3s2)cc1`, for which, under setting [1], the AC50 was 7.08 µM [rising, full curve, poor fit]. On the same count and under the same terms, as for `CCCC(=O)Nc1ccc2nc(SCC(=O)N3CCCC3)sc2c1`, the figure is 0.251 µM [falling, full curve, poor fit]. Consider `COc1ccc(NC(=O)N/C=C/c2ccc(Cl)cc2)cc1`, for which the half-maximal activity concentration (AC50) under setting [2] is 35.5 µM [rising, single point]. Consider `O=C(COC(=O)CCN1C(=O)c2cccc([N+](=O)[O-])c2C1=O)NC1CCS(=O)(=O)C1` (centres undefined), for which the AC50 is, setting by setting: under setting [1], 17.8 µM [falling, partial curve]; under setting [2], 7.94 µM [falling, partial curve]. In the case of `CCNc1nc(Oc2c(Cl)cccc2Cl)cc(C(F)(F)F)n1`, the half-maximal activity concentration (AC50) is, setting by setting: under setting [1], 35.5 µM [falling, single point]; under setting [2], 35.5 µM [falling, single point]. On to `O=C(Nc1ccccc1)N1N=C(c2cccs2)CC1c1cccs1` (centres undefined), for which the AC50 runs as follows: under setting [1], 20 µM [rising, single point]; under setting [2], 35.5 µM [rising, single point].

Take `Cc1nc2nc(SCC(=O)Nc3cccc(Cl)c3)nn2c(C)c1Cc1ccccc1`: the half-maximal activity concentration (AC50) reads like this: under setting [1], 15.8 µM [falling, single point]; under setting [2], 11.2 µM [falling, partial curve, poor fit]. As to `CN(C(=O)CSc1nc2ccc(NC(=O)c3ccccc3F)cc2s1)c1ccccc1`, the concentration at half-maximal activity (AC50) by setting is: under setting [1], 6.31 µM [rising, partial curve]; under setting [2], 2 µM [rising, full curve].

Consider `C[N+](C)(C)CCOC(N)=O`, for which the AC50 under setting [1] is 20 nM [falling, full curve, poor fit] and 5.62 µM [falling, partial curve, poor fit]. On to `COc1ccc2[nH]cc(S(=O)(=O)c3ccc(F)cc3)c(=O)c2c1`, for which the AC50 under setting [2] was 11.2 µM [rising, single point]. With `O=c1c2ccccc2oc2nc3ccn(Cc4ccncc4)c(=O)c3cc12`, the AC50 was 3.98 µM [falling, partial curve, poor fit] under setting [1] and 2.51 µM [falling, partial curve, poor fit] under setting [2].

Regarding `Cc1cc(NC(=O)COc2cccc(Oc3ccccc3)c2)no1`, the AC50 under setting [2] is 14.1 µM [rising, single point]. For `COC(=O)c1cccc(NC(=O)N(C)CCc2c(C)nn(C)c2C)c1`, the AC50 under setting [2] is 8.91 µM [rising, partial curve].

The values above are taken from PubChem BioAssay AID1487 (National Center for Advancing Translational Sciences (NCATS), 2009).
